At least one read-out could not be matched to a standard name with certainty.
Target: 5HT5a receptor

CNS(=O)(=O)Cc1ccc2[nH]cc(CCN(C)C)c2c1 [Sumatriptan]
Ki: 15.8 µM
